These are yes or no findings as the source states them, for the method shown. Some results given as binding are weak or reduced against the parent protein; the word gives no strength. Each block holds one binder with its values, some of them ahead of it.
Key:
[1] = target: T1, Ytm1 (Chaetomium thermophilum ribosome assembly factor) (Chaetomium thermophilum) (UniProt G0SFB5); assay: differential scanning fluorimetry; Thermofluor with SYPRO Orange; Ytm1 5 µM in 50 mM HEPES pH 7.5, 150 mM NaCl; peptide at 1 mM; 20-85°C at 1°C/min; both purified
T1 sequence: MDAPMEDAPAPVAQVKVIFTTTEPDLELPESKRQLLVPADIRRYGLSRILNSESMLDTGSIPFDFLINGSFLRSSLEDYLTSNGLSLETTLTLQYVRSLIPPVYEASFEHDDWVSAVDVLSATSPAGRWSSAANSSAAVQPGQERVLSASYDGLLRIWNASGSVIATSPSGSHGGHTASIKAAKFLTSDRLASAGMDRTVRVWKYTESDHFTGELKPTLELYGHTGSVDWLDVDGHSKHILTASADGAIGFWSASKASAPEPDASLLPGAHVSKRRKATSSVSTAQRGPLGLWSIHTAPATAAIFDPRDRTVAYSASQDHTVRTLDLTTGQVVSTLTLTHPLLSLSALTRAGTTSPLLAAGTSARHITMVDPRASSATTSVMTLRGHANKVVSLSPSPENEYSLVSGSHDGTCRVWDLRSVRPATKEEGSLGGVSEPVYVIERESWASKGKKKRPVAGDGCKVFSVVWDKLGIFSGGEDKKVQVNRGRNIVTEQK

[2] = target: T1, Ytm1 (Chaetomium thermophilum ribosome assembly factor) (Chaetomium thermophilum); assay: MST; 5 nM Ytm1 labelled with Red-NHS second-generation dye; 50 mM HEPES pH 7.5, 150 mM NaCl, 0.1% Pluronic F-127; peptide in sixteen serial dilutions (P1 1,230-0.0751 µM; P3 maximum 1,580 µM); Monolith NT.115; both purified
[3] = target: T2, Biot-P6 (N-terminally biotinylated Ytm1 385-391) (Chaetomium thermophilum); assay: BLI; biotinylated peptide (50 µg/ml) immobilised on streptavidin biosensor; Ytm1 (or Erb1 for Biot-P6) as analyte; interference-assay buffer with 0.05% BSA; both purified
T2 sequence (peptide, biotin on the N-terminus): RGHANKV

B1: Peptide P1 (Erb1 479-489) (peptide)
peptide: VWELLTGRQVW
notes: Erb1, Chaetomium thermophilum, residues 479-489; source: synthetic peptide, bought: Synpeptide Co., Ltd., Shanghai
- binding [1]: binds

- binding [2]: binds weakly
B2: Peptide P3 (Erb1 780-789) (peptide)
peptide: DWHPREPWCV

- binding [3]: no binding
B3: Erb1 (Chaetomium thermophilum ribosome assembly factor) (natural protein, UniProt G0SCK6 1-801, looked up)
chain: MGSKIVEKKRKSRDSDSESDNELGDGLFDGVLSQSEDEEDYIPSSEVDEDDDDDADESASEDSDDSNDSEDDEVEEDDEALLSDEIPSEGESEKDQDLAESKESKQDQDKEPSEPEILEPFVDPPRKEDEELEDRNYRIEKDANGGIRYVYDEIDPVYDSDDTDYNVPVNTIGNIPLSFYDSYPHIGYDINGKKIMRPATGDALQNLLDSIEVPEGWTGLTDPNTGKPLNLSRDELELIRKVQQGLIPDDVEDPYPDTVEWFTSVEEKMPLSAAPEPKRRFIPSKNEAKQIMKLVRAIREGRILPYKPPEEREREELEKEEEFYDLWQNEEPQPPNPMHIPAPKLPPPGYDLSYNPPPEYLPTKEEREEWEKMDPEDREKDYLPTKYDSLRKVPAWGNFVKERFERCMDLYLAPRVRKNRLNIDPNSLLPKLPSPDELKPFPTVQQTIFRGHEGRVRSVAIDPTGVALATGGDDGTVRVWELLTGRQVWSVKLNGDEAVNTVRWRPTKDTFILAAAAGEDIFLMIPTHPSVTPALDQASRDILNAGFGHATNGKQQANLPPGKEPPGKWARPGTRLEDEGVLLRITVRSTIKAISWHRRGDHFATVSPSGQRSSVAIHTLSKHLTQIPFRKLNGLAQTASFHPLRPLFFVATQRSIRCYDLQKLELVKIVQPGAKWISSFDVHPGGDNLVVGSYDKRLLWHDLDLSNRPYKTMRFHTEAIRAVRFHKGGLPLFADASDDGSLQIFHGKVPNDQLENPTIVPVKMLKGHKVVNKLGVLDIDWHPREPWCVSAGADGTARLWM
notes: Erb1, Chaetomium thermophilum; cloned in pET28-NKI/LIC 6His/3C; Erb1 was held on Ni-NTA biosensors; source: E. coli (DE3) BL21 CodonPlus (RIPL), auto-induction, purified (Histrap-HP Ni, HiTrap Heparin, Superdex 200 SEC)
